Source: paper PMC12362812
No constants are given. Whether binding was seen depends on the method and setting. For some of these results: In cells and extracts the contact can be indirect. Some results given as binding are weak or reduced against the parent protein; the word gives no strength. For some of these results: Sequences can lack the tags named with a protein.

Key:
[1] = target: LIM domain kinase 1 (LIMK1), wild type, overexpressed in ESCC cells (human), P53667; assay: co-IP; lysates of transfected ESCC cells, precleared with IgG and protein A/G Sepharose beads; primary antibody overnight at 4 °C, protein A/G Sepharose beads 4 h, washed with IP lysis buffer, Western blot; for β‐catenin and NUP93 with ectopic LIMK1 or CDK5 (wild type or kinase-dead); settings: remark: other sources report otherwise
[2] = target: T1, GST‐β‐catenin fusion protein (human), P35222; assay: pull-down; GST or β‐catenin‐GST fusion protein (20 µg) on GSH beads, 2 h at 4 °C; LIMK1/CDK5‐His‐tagged proteins (20 µg) added in IP lysis buffer, overnight at 4 °C; SDS‐PAGE and Western blot; both purified; settings: remark: other sources report otherwise
T1 chain: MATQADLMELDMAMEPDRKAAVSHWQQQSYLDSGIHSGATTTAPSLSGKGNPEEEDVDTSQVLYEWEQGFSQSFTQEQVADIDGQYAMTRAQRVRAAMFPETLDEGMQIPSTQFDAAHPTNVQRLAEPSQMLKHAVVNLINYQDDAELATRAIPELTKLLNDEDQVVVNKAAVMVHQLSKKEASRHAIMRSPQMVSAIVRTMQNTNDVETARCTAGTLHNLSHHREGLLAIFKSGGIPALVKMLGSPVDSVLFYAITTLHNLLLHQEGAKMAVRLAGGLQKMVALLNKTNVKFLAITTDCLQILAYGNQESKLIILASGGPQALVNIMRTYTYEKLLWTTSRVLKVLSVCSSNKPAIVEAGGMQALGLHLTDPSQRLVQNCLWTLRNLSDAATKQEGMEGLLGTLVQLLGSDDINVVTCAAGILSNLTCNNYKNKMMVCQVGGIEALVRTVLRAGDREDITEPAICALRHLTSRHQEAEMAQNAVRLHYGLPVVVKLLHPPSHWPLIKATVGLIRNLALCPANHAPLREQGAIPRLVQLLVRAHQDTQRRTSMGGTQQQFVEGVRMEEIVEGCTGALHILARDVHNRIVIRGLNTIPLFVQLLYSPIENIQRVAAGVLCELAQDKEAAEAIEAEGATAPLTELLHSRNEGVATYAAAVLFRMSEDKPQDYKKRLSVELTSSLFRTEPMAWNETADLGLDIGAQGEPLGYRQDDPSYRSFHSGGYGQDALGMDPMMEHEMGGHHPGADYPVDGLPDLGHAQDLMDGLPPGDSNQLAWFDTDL

[3] = target: β‐catenin‐S191A, overexpressed in ESCC cells (human) (UniProt P35222); assay: co-IP; lysates of transfected ESCC cells, precleared with IgG and protein A/G Sepharose beads; primary antibody overnight at 4 °C, protein A/G Sepharose beads 4 h, washed with IP lysis buffer, Western blot; for β‐catenin and NUP93 with ectopic LIMK1 or CDK5 (wild type or kinase-dead)
[4] = target: β‐catenin, wild type, in ESCC cells (human) (UniProt P35222); assay: as above

B1: β‐catenin, wild type, in ESCC cells, P35222 1-781 (protein)
chain: T1 chain
- binding [1]: binds

B2: LIMK1‐His‐tagged protein, P53667 1-647 (enzyme)
chain: MRLTLLCCTWREERMGEEGSELPVCASCGQRIYDGQYLQALNADWHADCFRCCDCSASLSHQYYEKDGQLFCKKDYWARYGESCHGCSEQITKGLVMVAGELKYHPECFICLTCGTFIGDGDTYTLVEHSKLYCGHCYYQTVVTPVIEQILPDSPGSHLPHTVTLVSIPASSHGKRGLSVSIDPPHGPPGCGTEHSHTVRVQGVDPGCMSPDVKNSIHVGDRILEINGTPIRNVPLDEIDLLIQETSRLLQLTLEHDPHDTLGHGLGPETSPLSSPAYTPSGEAGSSARQKPVLRSCSIDRSPGAGSLGSPASQRKDLGRSESLRVVCRPHRIFRPSDLIHGEVLGKGCFGQAIKVTHRETGEVMVMKELIRFDEETQRTFLKEVKVMRCLEHPNVLKFIGVLYKDKRLNFITEYIKGGTLRGIIKSMDSQYPWSQRVSFAKDIASGMAYLHSMNIIHRDLNSHNCLVRENKNVVVADFGLARLMVDEKTQPEGLRSLKKPDRKKRYTVVGNPYWMAPEMINGRSYDEKVDVFSFGIVLCEIIGRVNADPDYLPRTMDFGLNVRGFLDRYCPPNCPPSFFPITVRCCDLDPEKRPSFVKLEHWLETLRMHLAGHLPLGPQLEQLDRGFWETYRRGESGLPAHPEVPD
- binding [2]: binds

B3: nucleoporin 93 (NUP93) (protein, UniProt Q8N1F7 1-819)
chain: MDTEGFGELLQQAEQLAAETEGISELPHVERNLQEIQQAGERLRSRTLTRTSQETADVKASVLLGSRGLDISHISQRLESLSAATTFEPLEPVKDTDIQGFLKNEKDNALLSAIEESRKRTFGMAEEYHRESMLVEWEQVKQRILHTLLASGEDALDFTQESEPSYISDVGPPGRSSLDNIEMAYARQIYIYNEKIVNGHLQPNLVDLCASVAELDDKSISDMWTMVKQMTDVLLTPATDALKNRSSVEVRMEFVRQALAYLEQSYKNYTLVTVFGNLHQAQLGGVPGTYQLVRSFLNIKLPAPLPGLQDGEVEGHPVWALIYYCMRCGDLLAASQVVNRAQHQLGEFKTWFQEYMNSKDRRLSPATENKLRLHYRRALRNNTDPYKRAVYCIIGRCDVTDNQSEVADKTEDYLWLKLNQVCFDDDGTSSPQDRLTLSQFQKQLLEDYGESHFTVNQQPFLYFQVLFLTAQFEAAVAFLFRMERLRCHAVHVALVLFELKLLLKSSGQSAQLLSHEPGDPPCLRRLNFVRLLMLYTRKFESTDPREALQYFYFLRDEKDSQGENMFLRCVSELVIESREFDMILGKLENDGSRKPGVIDKFTSDTKPIINKVASVAENKGLFEEAAKLYDLAKNADKVLELMNKLLSPVVPQISAPQSNKERLKNMALSIAERYRAQGISANKFVDSTFYLLLDLITFFDEYHSGHIDRAFDIIERLKLVPLNQESVEERVAAFRNFSDEIRHNLSEVLLATMNILFTQFKRLKGTSPSSSSRPQRVIEDRDSQLRSQARTLITFAGMIPYRTSGDTNARLVQMEVLMN
- binding [3]: binds
- binding [4]: binds
